No constants are given. Whether binding was seen depends on the method and setting. Binding can be weak; no strength is given. Sequences can lack the tags named with a protein. For some assays here: In cells and extracts the contact can be indirect.
Columns and labels:
[1] = molecular target: GST-bZIP72 (rice (Oryza sativa L. ssp. japonica cv Nipponbare)); test: pull-down; GST fusion on glutathione high-capacity magnetic agarose beads; 50 mM Tris-HCl pH 7.5, 5% glycerol, 1 mM EDTA, 1 mM DTT, 1 mM PMSF, 0.01% Nonidet P-40, 150 mM KCl; 4°C, 2 h; blots with anti-His and anti-GST; both purified
[2] = molecular target: bZIP72 fused to the GAL4-binding domain (rice (Oryza sativa L. ssp. japonica cv Nipponbare)); test: two-hybrid; Matchmaker GAL4 two-hybrid system, constructs cotransformed into yeast strain Y2H Gold, selected on medium lacking Leu, Trp and His with 0.04 mg/ml X-alpha-Gal and 100 ng/ml Aureobasidin A
[3] = molecular target: bZIP72-FLAG (rice (Oryza sativa L. ssp. japonica cv Nipponbare)); test: co-IP; bZIP72-FLAG coexpressed with SAPK10-GFP or empty GFP in tobacco leaves; extract on anti-FLAG M2 magnetic beads, 4°C, 2 h; blots with anti-GFP and anti-FLAG

| Binder | binding [1] | binding [2] | other results |
| --- | --- | --- | --- |
| His-SAPK10 (enzyme, UniProt Q75H77 1-362, looked up, SAPK10 (SnRK2 type kinase), rice; full-length CDS in pET28a; source: Transetta (DE3) cells, purified (6 x His-Tagged Protein Purification Kit)) MDRAALTVGPGMDMPIMHDGDRYELVRDIGSGNFGVARLMRSRADGQLVAVKYIERGDKIDENVQREIINHRSLRHPNIIRFKEVILTPTHLAIVMEYASGGELFERICNAGRFSEDEARFFFQQLISGVSYCHSMQVCHRDLKLENTLLDGSTAPRLKICDFGYSKSSVLHSQPKSTVGTPAYIAPEVLLKKEYDGKIADVWSCGVTLYVMLVGAYPFEDPDEPKNFRKTIQRILGVQYSIPDYVHISPECRDLIARIFVANPATRISIPEIRNHPWFLKNLPADLMDDSKMSSQYEEPEQPMQSMDEIMQILAEATIPAAGSGGINQFLNDGLDLDDDMEDLDSDPDLDVESSGEIVYAM | binds | – | – |
| His-SAPK10^S177A (enzyme, UniProt Q75H77 1-362, looked up, SAPK10, rice, Ser177 replaced by alanine; full-length CDS in pET28a; source: Transetta (DE3) cells, purified (6 x His-Tagged Protein Purification Kit)) MDRAALTVGPGMDMPIMHDGDRYELVRDIGSGNFGVARLMRSRADGQLVAVKYIERGDKIDENVQREIINHRSLRHPNIIRFKEVILTPTHLAIVMEYASGGELFERICNAGRFSEDEARFFFQQLISGVSYCHSMQVCHRDLKLENTLLDGSTAPRLKICDFGYSKSSVLHSQPKATVGTPAYIAPEVLLKKEYDGKIADVWSCGVTLYVMLVGAYPFEDPDEPKNFRKTIQRILGVQYSIPDYVHISPECRDLIARIFVANPATRISIPEIRNHPWFLKNLPADLMDDSKMSSQYEEPEQPMQSMDEIMQILAEATIPAAGSGGINQFLNDGLDLDDDMEDLDSDPDLDVESSGEIVYAM | binds | – | – |
| SAPK10 fused to the GAL4 activation domain (enzyme, UniProt Q75H77 1-362) MDRAALTVGPGMDMPIMHDGDRYELVRDIGSGNFGVARLMRSRADGQLVAVKYIERGDKIDENVQREIINHRSLRHPNIIRFKEVILTPTHLAIVMEYASGGELFERICNAGRFSEDEARFFFQQLISGVSYCHSMQVCHRDLKLENTLLDGSTAPRLKICDFGYSKSSVLHSQPKSTVGTPAYIAPEVLLKKEYDGKIADVWSCGVTLYVMLVGAYPFEDPDEPKNFRKTIQRILGVQYSIPDYVHISPECRDLIARIFVANPATRISIPEIRNHPWFLKNLPADLMDDSKMSSQYEEPEQPMQSMDEIMQILAEATIPAAGSGGINQFLNDGLDLDDDMEDLDSDPDLDVESSGEIVYAM | – | binds | – |
| SAPK10-GFP (enzyme, UniProt Q75H77 1-362) MDRAALTVGPGMDMPIMHDGDRYELVRDIGSGNFGVARLMRSRADGQLVAVKYIERGDKIDENVQREIINHRSLRHPNIIRFKEVILTPTHLAIVMEYASGGELFERICNAGRFSEDEARFFFQQLISGVSYCHSMQVCHRDLKLENTLLDGSTAPRLKICDFGYSKSSVLHSQPKSTVGTPAYIAPEVLLKKEYDGKIADVWSCGVTLYVMLVGAYPFEDPDEPKNFRKTIQRILGVQYSIPDYVHISPECRDLIARIFVANPATRISIPEIRNHPWFLKNLPADLMDDSKMSSQYEEPEQPMQSMDEIMQILAEATIPAAGSGGINQFLNDGLDLDDDMEDLDSDPDLDVESSGEIVYAM | – | – | binding [3]: binds |
| SAPK10^S177A fused to the GAL4 activation domain (enzyme, UniProt Q75H77 1-362) MDRAALTVGPGMDMPIMHDGDRYELVRDIGSGNFGVARLMRSRADGQLVAVKYIERGDKIDENVQREIINHRSLRHPNIIRFKEVILTPTHLAIVMEYASGGELFERICNAGRFSEDEARFFFQQLISGVSYCHSMQVCHRDLKLENTLLDGSTAPRLKICDFGYSKSSVLHSQPKATVGTPAYIAPEVLLKKEYDGKIADVWSCGVTLYVMLVGAYPFEDPDEPKNFRKTIQRILGVQYSIPDYVHISPECRDLIARIFVANPATRISIPEIRNHPWFLKNLPADLMDDSKMSSQYEEPEQPMQSMDEIMQILAEATIPAAGSGGINQFLNDGLDLDDDMEDLDSDPDLDVESSGEIVYAM | – | binds | – |

From paper PMC7689938, “Abscisic acid promotes jasmonic acid biosynthesis via a ‘SAPK10‐bZIP72‐AOC’ pathway to synergistically inhibit seed germination in rice (Oryza sativa)” (The New Phytologist, 2020)
